Experimental data published in patent US9598389B2, “Dihydrobenzofuran derivatives as insecticidal compounds” (SYNGENTA PARTICIPATIONS AG, priority 2013, dated 2017).
Some results were stated once for a whole list of compounds, not compound by compound. For at least one compound, name, drawing or mass did not settle the structure.

Legend:
Format in all cases: in vivo
[1] = test system: Diabrotica balteata (Corn Root Worm); assay: Diabrotica balteata L2 larvae test on artificial diet; details: application rate of 200 ppm, 5 days after infestation
Description: Diabrotica balteata (Corn Root Worm):
(§1) 24-well microtiter plates with artificial diet were treated with aqueous test solutions prepared from 10,000 ppm DMSO stock solutions by pipetting. After drying, the plates were infested with L2 larvae (6 to 10 per well). The samples were assessed for mortality and growth inhibition in comparison to untreated samples 5 days after infestation.

[2] = test system: Spodoptera Littoralis (Egyptian Cotton Leaf Worm); assay: Spodoptera littoralis cotton leaf disc spray test; details: application rate of 200 ppm; L1 larvae; 3 days after infestation
[3] = test system: Heliothis virescens (Tobacco Budworm); assay: Heliothis virescens egg/larval test on artificial diet; details: application rate of 200 ppm; eggs 0-24 h old; 5 days after infestation
Description: Heliothis virescens (Tobacco Budworm):
Eggs (0-24 h old) were placed in 24-well microtiter plates on artificial diet and treated with aqueous test solutions prepared from 10,000 ppm DMSO stock solutions by pipetting. The samples were assessed for egg and larval mortality 5 days after infestation.

[4] = test system: Plutella xylostella (Diamond Back Moth); assay: Plutella xylostella L2 larvae test on artificial diet; details: application rate of 200 ppm, 5 days after infestation
Description: Plutella xylostella (Diamond Back Moth):
as §1, with “larvae (10” for “larvae (6”, “to 15” for “to 10”

[5] = test system: Thrips tabaci (Onion Thrips); assay: Thrips tabaci sunflower leaf disc spray test; details: application rate of 200 ppm; population of mixed ages; 6 days after infestation
Description: Thrips tabaci (Onion Thrips):
Sunflower leaf discs were placed on agar in 24-well microtiter plates and sprayed with aqueous test solutions prepared from 10,000 ppm DMSO stock solutions. After drying the leaf discs were infested with a thrips population of mixed ages. The samples were assessed for mortality 6 days after infestation.

| SMILES | effect in at least one of the two categories (mortality or growth inhibition) [1] [%] | control (at least one of mortality, anti-feedant effect, growth inhibition) [2] | egg or larval mortality [3] [%] | effect in at least one of the two categories (mortality or growth inhibition) [4] [%] | mortality [5] [%] |
| --- | --- | --- | --- | --- | --- |
| O=C(Nc1cccc(-c2ccc3c(c2)CC(c2cccc(C(F)(F)F)c2)(C(F)(F)F)O3)c1)C1CCC1 (centres unmarked) [Compound 162] | ≥ 80 | at least 80% | ≥ 80 | ≥ 80 | ≥ 80 |
| N#CC1(C(=O)Nc2cccc(-c3ccc4c(c3)CC(c3cccc(C(F)(F)F)c3)(C(F)(F)F)O4)c2)CC1 (centres unmarked) [Compound 167] | ≥ 80 | at least 80% | ≥ 80 | ≥ 80 | ≥ 80 |
| O=C(CC(F)(F)F)Nc1cccc(-c2ccc3c(c2)CC(c2cc(C(F)(F)F)cc(C(F)(F)F)c2)(C(F)(F)F)O3)c1 (centres unmarked) [Compound 180] | ≥ 80 | at least 80% | ≥ 80 | ≥ 80 | ≥ 80 |
| CSCC(=O)Nc1cccc(-c2ccc3c(c2)CC(c2cc(Cl)cc(Cl)c2)(C(F)(F)F)O3)c1 (racemic) [Compound 79] | ≥ 80 | at least 80% | ≥ 80 | ≥ 80 | ≥ 80 |
| CCC(=O)Nc1cc(-c2ccc3c(c2)CC(c2cc(Cl)cc(Cl)c2)(C(F)(F)F)O3)ccc1Cl (centres unmarked) [Compound 188] | ≥ 80 | at least 80% | ≥ 80 | ≥ 80 | ≥ 80 |
| CSCC(=O)Nc1ccc(F)c(-c2ccc3c(c2)CC(c2cc(Cl)cc(Cl)c2)(C(F)(F)F)O3)c1 (racemic) [Compound 96] | ≥ 80 | at least 80% | ≥ 80 | ≥ 80 | ≥ 80 |
| CC(CF)C(=O)Nc1cccc(-c2ccc3c(c2)CC(c2cccc(C(F)(F)F)c2)(C(F)(F)F)O3)c1 (centres unmarked) [Compound 165] | ≥ 80 | at least 80% | ≥ 80 | ≥ 80 | ≥ 80 |
| CCC(=O)Nc1cc(-c2ccc3c(c2)CC(c2cc(Cl)cc(Cl)c2)(C(F)(F)F)O3)c(F)cc1F (centres unmarked) [Compound 199] | ≥ 80 | at least 80% | ≥ 80 | ≥ 80 | ≥ 80 |
| CC(F)C(=O)Nc1cccc(-c2ccc3c(c2)CC(c2cccc(C(F)(F)F)c2)(C(F)(F)F)O3)c1 (centres unmarked) [Compound 169] | ≥ 80 | at least 80% | ≥ 80 | ≥ 80 | ≥ 80 |
| CCC(=O)Nc1cccc(-c2cc3c(cc2C#N)OC(c2cc(Cl)cc(Cl)c2)(C(F)(F)F)C3)c1 (centres unmarked) [Compound 233] | ≥ 80 | at least 80% | ≥ 80 | ≥ 80 | ≥ 80 |
